According to patent US4311689A, “Method and container for production of diagnostic scanning” (priority 1978, dated 1982):

Assay: Labelling efficiency / extent of complex formation with technetium-99m by thin layer chromatography on silica gel

O=C(O)CN(CCN(CC(=O)O)CC(=O)O)CC(=O)O
technetium activity present as a complex (tin foil, unadjusted pH 4.0, 15 minutes): all the technetium activity was present as a complex

O=C(O)C1=CC(=C(c2ccc(O)c(C(=O)O)c2)c2ccc(O)c(C(=O)O)c2)C=CC1=O [aluminon]
pertechnetate reduced to give a complex of technetium (tin foil, pH 5, 15 minutes): Essentially all

O=C(O)C(=O)O [oxalic acid]
yield of complex (tin foil degreased but not activated, pH 4.7, 15 minutes, variable): around 40%
